In publication PMC12851572:
Results are given in words; binding and its absence hold for the method and conditions named. In cells and extracts the contact can be indirect. Here binding means that the protein was enriched with, or labelled near, the bait; the list need not be complete. Tags and fused reporters may be left off the sequences shown.

Protein sequences, listed by entry. Tags and fused reporters are not part of them.
UniProt Q99459: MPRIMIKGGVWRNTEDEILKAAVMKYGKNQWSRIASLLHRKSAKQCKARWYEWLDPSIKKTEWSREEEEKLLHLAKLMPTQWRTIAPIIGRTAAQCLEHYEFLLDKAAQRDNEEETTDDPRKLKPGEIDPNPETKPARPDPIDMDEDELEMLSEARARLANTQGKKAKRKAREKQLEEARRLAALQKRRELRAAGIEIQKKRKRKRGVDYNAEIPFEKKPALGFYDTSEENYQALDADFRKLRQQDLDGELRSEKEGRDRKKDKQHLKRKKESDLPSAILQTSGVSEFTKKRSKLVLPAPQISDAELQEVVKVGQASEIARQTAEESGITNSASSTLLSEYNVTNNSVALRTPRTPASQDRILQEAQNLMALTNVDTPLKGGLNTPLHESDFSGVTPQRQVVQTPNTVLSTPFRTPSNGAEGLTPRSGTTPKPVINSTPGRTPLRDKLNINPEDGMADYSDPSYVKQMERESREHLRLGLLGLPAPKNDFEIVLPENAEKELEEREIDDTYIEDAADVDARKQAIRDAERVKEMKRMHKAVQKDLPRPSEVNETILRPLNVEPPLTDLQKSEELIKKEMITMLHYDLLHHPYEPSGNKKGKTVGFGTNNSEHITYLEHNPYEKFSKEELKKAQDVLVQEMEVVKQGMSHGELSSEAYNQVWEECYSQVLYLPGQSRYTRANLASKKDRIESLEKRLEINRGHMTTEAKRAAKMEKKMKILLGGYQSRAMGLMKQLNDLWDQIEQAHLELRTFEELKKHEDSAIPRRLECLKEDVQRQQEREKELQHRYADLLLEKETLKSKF
UniProt Q14974: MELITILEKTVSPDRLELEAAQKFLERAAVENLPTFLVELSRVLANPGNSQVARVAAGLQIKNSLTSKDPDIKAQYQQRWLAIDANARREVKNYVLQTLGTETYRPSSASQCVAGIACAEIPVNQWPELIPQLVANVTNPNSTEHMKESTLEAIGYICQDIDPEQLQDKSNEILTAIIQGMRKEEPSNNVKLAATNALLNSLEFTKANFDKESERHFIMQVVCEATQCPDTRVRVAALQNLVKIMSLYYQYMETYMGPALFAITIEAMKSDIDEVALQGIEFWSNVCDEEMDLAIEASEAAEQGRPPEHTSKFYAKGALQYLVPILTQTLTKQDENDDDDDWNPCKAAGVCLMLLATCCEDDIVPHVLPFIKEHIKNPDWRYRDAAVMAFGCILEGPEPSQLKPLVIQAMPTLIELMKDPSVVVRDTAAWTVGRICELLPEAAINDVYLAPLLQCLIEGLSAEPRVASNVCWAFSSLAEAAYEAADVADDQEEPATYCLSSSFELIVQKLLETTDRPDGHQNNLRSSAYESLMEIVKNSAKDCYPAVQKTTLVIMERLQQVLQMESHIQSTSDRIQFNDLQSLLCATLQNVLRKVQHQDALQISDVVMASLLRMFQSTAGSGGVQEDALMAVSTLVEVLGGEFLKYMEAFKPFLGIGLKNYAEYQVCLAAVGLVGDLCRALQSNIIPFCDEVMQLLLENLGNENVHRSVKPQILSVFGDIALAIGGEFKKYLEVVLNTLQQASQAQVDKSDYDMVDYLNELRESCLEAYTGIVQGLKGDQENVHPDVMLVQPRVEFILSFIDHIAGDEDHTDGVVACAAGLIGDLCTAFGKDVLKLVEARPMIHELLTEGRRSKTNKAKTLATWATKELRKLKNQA
UniProt P62318: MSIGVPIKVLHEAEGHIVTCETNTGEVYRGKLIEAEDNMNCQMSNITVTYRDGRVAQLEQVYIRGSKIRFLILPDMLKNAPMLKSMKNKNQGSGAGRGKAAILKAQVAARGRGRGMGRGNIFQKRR
UniProt O75947: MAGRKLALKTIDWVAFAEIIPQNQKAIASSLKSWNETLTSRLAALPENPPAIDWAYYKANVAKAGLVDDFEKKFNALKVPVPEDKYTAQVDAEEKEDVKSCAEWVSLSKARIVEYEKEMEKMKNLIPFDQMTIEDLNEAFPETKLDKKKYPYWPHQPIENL
UniProt P35580: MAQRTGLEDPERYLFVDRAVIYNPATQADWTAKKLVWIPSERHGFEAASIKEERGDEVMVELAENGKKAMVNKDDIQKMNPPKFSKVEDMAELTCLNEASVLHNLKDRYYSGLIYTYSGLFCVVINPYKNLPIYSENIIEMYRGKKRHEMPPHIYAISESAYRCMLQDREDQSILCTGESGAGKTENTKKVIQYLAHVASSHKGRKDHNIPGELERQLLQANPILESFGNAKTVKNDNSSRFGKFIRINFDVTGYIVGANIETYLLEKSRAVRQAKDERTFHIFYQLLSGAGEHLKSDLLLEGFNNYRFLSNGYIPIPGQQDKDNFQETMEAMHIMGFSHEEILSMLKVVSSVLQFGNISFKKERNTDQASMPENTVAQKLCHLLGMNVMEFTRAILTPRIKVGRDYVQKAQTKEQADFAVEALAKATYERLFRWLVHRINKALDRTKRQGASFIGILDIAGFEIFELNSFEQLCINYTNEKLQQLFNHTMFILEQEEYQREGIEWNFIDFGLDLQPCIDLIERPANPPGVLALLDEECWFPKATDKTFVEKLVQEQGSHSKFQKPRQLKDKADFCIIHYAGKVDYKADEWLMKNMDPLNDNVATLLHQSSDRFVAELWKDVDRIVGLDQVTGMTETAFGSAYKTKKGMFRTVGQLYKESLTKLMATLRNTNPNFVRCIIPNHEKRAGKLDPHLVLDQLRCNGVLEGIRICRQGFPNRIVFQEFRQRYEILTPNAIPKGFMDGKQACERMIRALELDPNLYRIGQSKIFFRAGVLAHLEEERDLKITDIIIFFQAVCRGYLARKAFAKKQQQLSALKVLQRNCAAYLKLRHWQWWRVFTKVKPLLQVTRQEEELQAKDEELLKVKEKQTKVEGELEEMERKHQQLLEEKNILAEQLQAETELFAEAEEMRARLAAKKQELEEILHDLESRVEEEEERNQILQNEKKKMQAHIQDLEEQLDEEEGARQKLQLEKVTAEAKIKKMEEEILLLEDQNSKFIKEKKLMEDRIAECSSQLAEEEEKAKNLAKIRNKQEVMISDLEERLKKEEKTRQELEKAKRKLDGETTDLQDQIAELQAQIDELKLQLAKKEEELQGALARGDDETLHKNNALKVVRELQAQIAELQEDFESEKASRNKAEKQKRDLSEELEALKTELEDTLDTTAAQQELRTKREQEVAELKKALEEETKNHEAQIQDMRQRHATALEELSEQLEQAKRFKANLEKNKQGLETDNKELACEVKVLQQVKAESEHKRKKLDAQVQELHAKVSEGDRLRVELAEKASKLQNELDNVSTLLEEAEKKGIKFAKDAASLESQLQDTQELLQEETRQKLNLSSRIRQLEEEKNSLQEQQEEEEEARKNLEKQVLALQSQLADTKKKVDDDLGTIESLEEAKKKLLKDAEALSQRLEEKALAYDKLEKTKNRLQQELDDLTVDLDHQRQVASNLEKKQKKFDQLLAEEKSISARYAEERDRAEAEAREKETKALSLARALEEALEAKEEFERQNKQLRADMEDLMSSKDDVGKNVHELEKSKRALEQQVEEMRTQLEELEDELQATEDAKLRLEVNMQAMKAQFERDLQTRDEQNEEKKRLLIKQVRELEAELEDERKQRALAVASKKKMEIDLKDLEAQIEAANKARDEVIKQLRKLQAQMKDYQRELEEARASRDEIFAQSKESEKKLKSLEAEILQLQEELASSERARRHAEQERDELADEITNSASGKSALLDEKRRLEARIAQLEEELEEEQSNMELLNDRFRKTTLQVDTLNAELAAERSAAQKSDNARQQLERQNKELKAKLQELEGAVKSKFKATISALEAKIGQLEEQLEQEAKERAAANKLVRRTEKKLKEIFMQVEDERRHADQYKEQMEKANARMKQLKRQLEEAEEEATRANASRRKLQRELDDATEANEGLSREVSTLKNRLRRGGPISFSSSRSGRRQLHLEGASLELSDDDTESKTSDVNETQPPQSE

Target: T1, U6 small nuclear RNA (snRNA) biogenesis phosphodiesterase 1 (USB1), wild type, C-terminal HA tag (human) (UniProt Q9BQ65)
T1 sequence: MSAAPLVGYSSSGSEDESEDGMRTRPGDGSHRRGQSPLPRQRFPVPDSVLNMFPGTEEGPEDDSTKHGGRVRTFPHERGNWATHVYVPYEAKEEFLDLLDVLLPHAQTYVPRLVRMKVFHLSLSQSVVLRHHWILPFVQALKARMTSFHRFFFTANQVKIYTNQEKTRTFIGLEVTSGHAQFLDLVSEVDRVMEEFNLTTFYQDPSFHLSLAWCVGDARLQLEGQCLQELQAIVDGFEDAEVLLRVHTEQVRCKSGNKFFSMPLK
Experiment: affinity purification with mass spectrometry; lysates (600 ug protein) of HEK293T cells expressing USB1-HA variants or empty vector, Pierce anti-HA magnetic beads overnight at 4 C, IP Lysis/Wash Buffer; eluates digested with trypsin, nLC-MS/MS (DIA-PASEF); n = 4

| binding | Molecule |
| --- | --- |
| binds | CDC5L (from UniProt Q99459 1-802) |
| binds | KPNB1 (from UniProt Q14974 1-876) |
| binds | SNRPD3 (from UniProt P62318 1-126) |
| binds | ATP5PD (from UniProt O75947 1-161) |
| binds | MYH10 (from UniProt P35580 1-1976) |
| binds | TMED3 (protein, UniProt Q9Y3Q3 24-217) PCGAELTFELPDNAKQCFHEEVEQGVKFSLDYQVITGGHYDVDCYVEDPQGNTIYRETKKQYDSFTYRAEVKGVYQFCFSNEFSTFSHKTVYFDFQVGDEPPILPDMGNRVTALTQMESACVTIHEALKTVIDSQTHYRLREAQDRARAEDLNSRVSYWSVGETIALFVVSFSQVLLLKSFFTEKRPISRAVHS |
| binds | ATP5PB (protein, UniProt P24539 43-256) PVPPLPEYGGKVRYGLIPEEFFQFLYPKTGVTGPYVLGTGLILYALSKEIYVISAETFTALSVLGVMVYGIKKYGPFVADFADKLNEQKLAQLEEAKQASIQHIQNAIDTEKSQQALVQKRHYLFDVQRNNIAMALEVTYRERLYRVYKEVKNRLDYHISVQNMMRRKEQEHMINWVEKHVVQSISTQQEKETIAKCIADLKLLAKKAQAQPVM |
| binds | PLRG1 (protein, UniProt O43660 1-514) MVEEVQKHSVHTLVFRSLKRTHDMFVADNGKPVPLDEESHKRKMAIKLRNEYGPVLHMPTSKENLKEKGPQNATDSYVHKQYPANQGQEVEYFVAGTHPYPPGPGVALTADTKIQRMPSESAAQSLAVALPLQTKADANRTAPSGSEYRHPGASDRPQPTAMNSIVMETGNTKNSALMAKKAPTMPKPQWHPPWKLYRVISGHLGWVRCIAVEPGNQWFVTGSADRTIKIWDLASGKLKLSLTGHISTVRGVIVSTRSPYLFSCGEDKQVKCWDLEYNKVIRHYHGHLSAVYGLDLHPTIDVLVTCSRDSTARIWDVRTKASVHTLSGHTNAVATVRCQAAEPQIITGSHDTTIRLWDLVAGKTRVTLTNHKKSVRAVVLHPRHYTFASGSPDNIKQWKFPDGSFIQNLSGHNAIINTLTVNSDGVLVSGADNGTMHLWDWRTGYNFQRVHAAVQPGSLDSESGIFACAFDQSESRLLTAEADKTIKVYREDDTATEETHPVSWKPEIIKRKRF |
| binds | RBM22 (protein, UniProt Q9NW64 1-420) MATSLGSNTYNRQNWEDADFPILCQTCLGENPYIRMTKEKYGKECKICARPFTVFRWCPGVRMRFKKTEVCQTCSKLKNVCQTCLLDLEYGLPIQVRDAGLSFKDDMPKSDVNKEYYTQNMEREISNSDGTRPVGMLGKATSTSDMLLKLARTTPYYKRNRPHICSFWVKGECKRGEECPYRHEKPTDPDDPLADQNIKDRYYGINDPVADKLLKRASTMPRLDPPEDKTITTLYVGGLGDTITETDLRNHFYQFGEIRTITVVQRQQCAFIQFATRQAAEVAAEKSFNKLIVNGRRLNVKWGRSQAARGKEKEKDGTTDSGIKLEPVPGLPGALPPPPAAEEEASANYFNLPPSGPPAVVNIALPPPPGIAPPPPPGFGPHMFHPMGPPPPFMRAPGPIHYPSQDPQRMGAHAGKHSSP |
| binds | RBM27 (protein, UniProt Q9P2N5 1-1060) MLIEDVDALKSWLAKLLEPICDADPSALANYVVALVKKDKPEKELKAFCADQLDVFLQKETSGFVDKLFESLYTKNYLPLLEPVKPEPKPLVQEKEEIKEEVFQEPAEEERDGRKKKYPSPQKTRSESSERRTREKKREDGKWRDYDRYYERNELYREKYDWRRGRSKSRSKSRGLSRSRSRSRGRSKDRDPNRNVEHRERSKFKSERNDLESSYVPVSAPPPNSSEQYSSGAQSIPSTVTVIAPAHHSENTTESWSNYYNNHSSSNSFGRNLPPKRRCRDYDERGFCVLGDLCQFDHGNDPLVVDEVALPSMIPFPPPPPGLPPPPPPGMLMPPMPGPGPGPGPGPGPGPGPGPGPGHSMRLPVPQGHGQPPPSVVLPIPRPPITQSSLINSRDQPGTSAVPNLASVGTRLPPPLPQNLLYTVSERQPMYSREHGAAASERLQLGTPPPLLAARLVPPRNLMGSSIGYHTSVSSPTPLVPDTYEPDGYNPEAPSITSSGRSQYRQFFSRTQTQRPNLIGLTSGDMDVNPRAANIVIQTEPPVPVSINSNITRVVLEPDSRKRAMSGLEGPLTKKPWLGKQGNNNQNKPGFLRKNQYTNTKLEVKKIPQELNNITKLNEHFSKFGTIVNIQVAFKGDPEAALIQYLTNEEARKAISSTEAVLNNRFIRVLWHRENNEQPTLQSSAQLLLQQQQTLSHLSQQHHHLPQHLHQQQVLVAQSAPSTVHGGIQKMMSKPQTSGAYVLNKVPVKHRLGHAGGNQSDASHLLNQSGGAGEDCQIFSTPGHPKMIYSSSNLKTPSKLCSGSKSHDVQEVLKKKQEAMKLQQDMRKKRQEVLEKQIECQKMLISKLEKNKNMKPEERANIMKTLKELGEKISQLKDELKTSSAVSTPSKVKTKTEAQKELLDTELDLHKRLSSGEDTTELRKKLSQLQVEAARLGILPVGRGKTMSSQGRGRGRGRGGRGRGSLNHMVVDHRPKALTVGGFIEEEKEDLLQHFSTANQGPKFKDRRLQISWHKPKVPSISTETEEEEVKEEETETSDLFLPDDDDEDEDEYESRSWRR |
| binds | DHX8 (protein, UniProt Q14562 1-1220) MAVAVAMAGALIGSEPGPAEELAKLEYLSLVSKVCTELDNHLGINDKDLAEFVISLAEKNTTFDTFKASLVKNGAEFTDSLISNLLRLIQTMRPPAKPSTSKDPVVKPKTEKEKLKELFPVLCQPDNPSVRTMLDEDDVKVAVDVLKELEALMPSAAGQEKQRDAEHRDRTKKKKRSRSRDRNRDRDRDRERNRDRDHKRRHRSRSRSRSRTRERNKVKSRYRSRSRSQSPPKDRKDRDKYGERNLDRWRDKHVDRPPPEEPTIGDIYNGKVTSIMQFGCFVQLEGLRKRWEGLVHISELRREGRVANVADVVSKGQRVKVKVLSFTGTKTSLSMKDVDQETGEDLNPNRRRNLVGETNEETSMRNPDRPTHLSLVSAPEVEDDSLERKRLTRISDPEKWEIKQMIAANVLSKEEFPDFDEETGILPKVDDEEDEDLEIELVEEEPPFLRGHTKQSMDMSPIKIVKNPDGSLSQAAMMQSALAKERRELKQAQREAEMDSIPMGLNKHWVDPLPDAEGRQIAANMRGIGMMPNDIPEWKKHAFGGNKASYGKKTQMSILEQRESLPIYKLKEQLVQAVHDNQILIVIGETGSGKTTQITQYLAEAGYTSRGKIGCTQPRRVAAMSVAKRVSEEFGCCLGQEVGYTIRFEDCTSPETVIKYMTDGMLLRECLIDPDLTQYAIIMLDEAHERTIHTDVLFGLLKKTVQKRQDMKLIVTSATLDAVKFSQYFYEAPIFTIPGRTYPVEILYTKEPETDYLDASLITVMQIHLTEPPGDILVFLTGQEEIDTACEILYERMKSLGPDVPELIILPVYSALPSEMQTRIFDPAPPGSRKVVIATNIAETSLTIDGIYYVVDPGFVKQKVYNSKTGIDQLVVTPISQAQAKQRAGRAGRTGPGKCYRLYTERAYRDEMLTTNVPEIQRTNLASTVLSLKAMGINDLLSFDFMDAPPMETLITAMEQLYTLGALDDEGLLTRLGRRMAEFPLEPMLCKMLIMSVHLGCSEEMLTIVSMLSVQNVFYRPKDKQALADQKKAKFHQTEGDHLTLLAVYNSWKNNKFSNPWCYENFIQARSLRRAQDIRKQMLGIMDRHKLDVVSCGKSTVRVQKAICSGFFRNAAKKDPQEGYRTLIDQQVVYIHPSSALFNRQPEWVVYHELVLTTKEYMREVTTIDPRWLVEFAPAFFKVSDPTKLSKQKKQQRLEPLYNRYEEPNAWRISRAFRRR |
